# Experimental data published in paper PMC9518246, “Design and synthesis of new indole drug candidates to treat Alzheimer’s disease and targeting neuro-inflammation using a multi-target-directed ligand (MTDL) strategy” (Journal of Enzyme Inhibition and Medicinal Chemistry, 2022).
# Key:
# in vitro [1] = assay type: cell-based; details: human
# Experimental: (§1) An MTT assay was performed to investigate the effect of the selected two compounds, 5b and 6b, on cell viability using human neuroblastoma (SH-SY5Y) and normal hepatic (THLE2) cell lines. […]. Microglia cell Line, BV-2, human neuroblastoma (SH-SY5Y), and normal hepatic (THLE2) cells were obtained from American Type Culture Collection, cells were cultured using DMEM (Invitrogen/Life Technologies, Carlsbad, CA) supplemented with 10% FBS (Hyclone), 10 µg/mL of insulin (Sigma, St. Louis, MO), and 1% penicillin-streptomycin. All of the other chemicals and reagents were from Sigma, or Invitrogen. Plate cells (cells density 1.2 − 1.8 × 10,000 cells/well) in a volume of 100 µL complete growth medium + 100 µL of the tested compounds per well in a 96-well plate for 24 h before the MTT assay.
# (§2) After treatment of cells with the serial concentrations of the compound to be tested, incubation is carried out for 48 h at 37 °C, and then the plates are to be examined under the inverted microscope and proceed for the MTT assay. […]
# (§3) Mitochondrial dehydrogenases of viable cells cleave the tetrazolium ring, yielding purple formazan crystals which are insoluble in aqueous solutions. […] The resulting purple solution is spectrophotometrically measured at a wavelength of 570 nm. Measure the background absorbance of multiwell plates at 690 nm and subtract from the 570 nm measurement.
# in vitro [2] = assay type: cell-based; details: human; remark: listed apart in the source
# Experimental: as §1, §2, §3
smiles,measurement,setting,value
"CN[C@@H]1C[C@H]2O[C@@](C)([C@@H]1OC)n1c3ccccc3c3c4c(c5c6ccccc6n2c5c31)C(=O)NC4 [staurosporine, reference compound]",IC50,in vitro [1],11.1 µg/mL
same,IC50,in vitro [2],34.6 µg/mL
